Molecules are shown by their SMILES. About 6,100 (1.1%) of roughly 580,000 compounds were called active. Not shown: some 15% with an inconclusive outcome. Calls follow the shape of the dose curve; as a rule, active = well fitted inhibition curve with a large enough effect; inconclusive = small, poorly fitted or top-dose-only effect, or another doubt; inactive = no such curve, though single readings can be large or run the other way. The entries are a selection whose mix differs from that of the whole data set. Where no call is shown, the source filed none.
% is scaled to controls: 0 for no effect and ±100 for the full control effect; potency is read from the fitted curve at half-maximal effect.

Chains of the proteins cited; added tags and fusions are not shown.
UniProt P18054, whole entry, looked up: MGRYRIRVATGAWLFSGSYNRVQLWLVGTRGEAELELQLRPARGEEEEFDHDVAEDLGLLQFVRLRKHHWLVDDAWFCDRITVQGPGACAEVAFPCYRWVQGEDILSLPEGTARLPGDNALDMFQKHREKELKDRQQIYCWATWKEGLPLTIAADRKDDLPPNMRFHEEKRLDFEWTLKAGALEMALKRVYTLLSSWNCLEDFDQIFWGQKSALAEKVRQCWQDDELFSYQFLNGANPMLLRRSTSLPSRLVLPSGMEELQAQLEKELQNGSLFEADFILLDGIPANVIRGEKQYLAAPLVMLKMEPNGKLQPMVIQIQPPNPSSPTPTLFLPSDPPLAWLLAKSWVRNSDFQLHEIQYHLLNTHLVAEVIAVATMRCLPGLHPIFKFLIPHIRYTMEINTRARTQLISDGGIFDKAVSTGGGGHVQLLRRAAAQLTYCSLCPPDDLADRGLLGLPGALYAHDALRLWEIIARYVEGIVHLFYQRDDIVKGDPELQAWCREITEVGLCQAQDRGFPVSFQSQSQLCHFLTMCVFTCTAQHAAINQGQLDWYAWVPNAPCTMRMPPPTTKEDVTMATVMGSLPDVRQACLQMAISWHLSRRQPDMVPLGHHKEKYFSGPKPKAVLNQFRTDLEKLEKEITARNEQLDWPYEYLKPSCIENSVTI

The assay concerns the target Polyunsaturated fatty acid lipoxygenase ALOX12 (Homo sapiens) (UniProt P18054). Put plainly: Primary qHTS assay for inhibitors of human arachidonate 12S-lipoxygenase (ALOX12): Round 2. The conditions noted are these: purified 12hLO, xylenol orange hydroperoxide absorbance; activity change, negative = inhibition: at 0.00344 µM (top of the series). Summed up: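 Purified human 12hLO (150 nM final) in 25 mM Hepes, 0.01% Triton X-100, pH 7.0 was preincubated 15 min at room temperature with compound. Then 40 uM arachidonic acid was added, 30 min. Hydroperoxide was read by Fe-XO absorbance ratio 573/405 nm.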
For the compound `COC(=O)/C=C\C(=O)OC`, the activity change, negative = inhibition was -10.5%. Turning to `O=C(NC(=S)NCCC1=CCCCC1)c1ccco1`, the Potency is active: 44.7 µM. Turning to `CN(C)CCCN1c2ccccc2Sc2ccc(Cl)cc21`, the activity change, negative = inhibition is -29.4%.

Regarding `O=C(COC(=O)C1CC2C=CC1C2)Nc1c(Br)cc([N+](=O)[O-])cc1Br` (configuration not stated), the Potency was active: 22.4 µM.

As for `CCOC(=O)c1[nH]c(C)c(/C(Br)=C/Br)c1C`, the Potency was active: 6.31 µM.

In the case of `Cc1cc(O)c2ccccc2c1O`, the activity change, negative = inhibition was determined as 2.91%.

`Cc1cccc2sc(NC(=O)C3CCN(S(=O)(=O)c4cc([N+](=O)[O-])ccc4Cl)CC3)nc12`: the Potency is active: 39.8 µM. For the compound `C[N+](C)(C)CCOC(=O)CCC(=O)OCC[N+](C)(C)C`, the activity change, negative = inhibition came out at 8.93%.

In the case of `CCCCCCCCCCCCCCCCOP(=O)([O-])OCC[N+](C)(C)C`, the activity change, negative = inhibition was found to be 7.55%. As to `CCOc1ccc2nc3cc(N)ccc3c(N)c2c1`, the activity change, negative = inhibition is -58.2%. `CC(=O)OC[C@H]1O[C@@](COC(C)=O)(O[C@H]2O[C@H](COC(C)=O)[C@@H](OC(C)=O)[C@H](OC(C)=O)[C@H]2OC(C)=O)[C@@H](OC(C)=O)[C@@H]1OC(C)=O`: the activity change, negative = inhibition was 16.7%.

Turning to `O=C(COc1ccc(Cl)cc1)N1CCN(Cc2ccc3c(c2)OCO3)CC1`, the activity change, negative = inhibition was -29.1%. Regarding `CCN(CC)CCOC(=O)C(c1ccccc1)c1ccccc1`, the activity change, negative = inhibition was -5.29%. On the same count and under the same terms, under `OC(CCCN1CCCCC1)(c1ccccc1)c1ccccc1` stands -11.1%.

Turning to `COc1cccc(CCC(=O)N2CCC3(CC2)NC(=O)N(c2cccc(F)c2)N3)c1`, the Potency was active: 5.62 µM. As to `Nc1nc2c(s1)C(c1ccccc1Cl)CC(=O)N2` (configuration not stated), the Potency was active: 20 µM.

As to `COC(=O)c1cc(Cl)c(NC(C)=O)cc1OC`, the activity change, negative = inhibition was -20.6%.

Take `CC(C)(C)CC(C)(C)c1ccc(O)c(Cc2ccc(Cl)cc2Cl)c1`: the activity change, negative = inhibition was determined as 9.52%. Still for that read-out and setting: under `Cc1ccc(S(=O)(=O)NC(=O)NN2CCCCCC2)cc1` stands -4.28%. For the compound `COc1cccc(OC)c1C(=O)N[C@@H]1C(=O)N2[C@@H]1SC(C)(C)[C@@H]2C(=O)O`, the activity change, negative = inhibition stood at 49.3%. With `CC(=O)CC/C=C(\C)CC/C=C(\C)CC/C=C(\C)CCC=C(C)C`, the activity change, negative = inhibition stood at 40.4%. Consider `CCCCNc1c(C(=O)OCC)c(C)nc2c1cnn2CC`, for which the activity change, negative = inhibition is 11.2%. Take `COc1cc(NC(C)CCCN)c2ncccc2c1` (configuration not stated): the activity change, negative = inhibition was 48.3%.

On to `CCCCC1(COC(=O)CCC(=O)O)C(=O)N(c2ccccc2)N(c2ccccc2)C1=O`, for which the activity change, negative = inhibition stood at 46.6%. Consider `O=c1[nH]c(=O)n([C@H]2C[C@H](O)[C@@H](CO)O2)cc1Br`, for which the activity change, negative = inhibition was 11.4%.

`Cc1[nH]cnc1-c1ccc(Cl)cc1`: the activity change, negative = inhibition was -41.2%. `CCOc1ccc(C(Nc2cccnc2)c2cc(Cl)c3cccnc3c2O)cc1` (configuration not stated): the Potency is active: 10 µM. For the compound `CN1CCN(c2ccc(NC(=O)c3ccc(-c4ccc(Br)cc4)o3)cc2)CC1`, the Potency is active: 50.1 µM. `NC(N)=Nc1nc(CSCC/C(N)=N/S(N)(=O)=O)cs1`: the activity change, negative = inhibition was -18.7%. On to `Cc1cc(-c2ccccc2)nnc1NCCN1CCOCC1`, for which the activity change, negative = inhibition is -18.3%.

`CC(=O)O[C@@H]1C(=O)O[C@@H]2[C@H]1OC(=O)[C@@H]2OC(C)=O`: the activity change, negative = inhibition was -12.3%. With `CC/C(=C(/CC)c1ccc(O)cc1)c1ccc(O)cc1`, the activity change, negative = inhibition is -20.1%. On to `CSc1ccc2c(c1)N(CCC1CCCCN1C)c1ccccc1S2` (configuration not stated), for which the activity change, negative = inhibition was 26.7%. As for `NC(c1ccccc1)c1csc(Nc2cc(Oc3ccccc3)ncn2)n1` (configuration not stated), the Potency is active: 35.5 µM.

For `C#CCOCCOCCOCCNc1nc(N2CCN(C(=O)[C@H]([C@@H](C)CC)n3cc(CCCN=C(N)N)nn3)CC2)nc(N2CCN(C(=O)[C@H]([C@@H](C)CC)n3cc(CCC(=O)O)nn3)CC2)n1`, the Potency was active: 10 µM. On to `CC1(C)[C@@H](OC(=O)CCC(=O)O)CC[C@]2(C)[C@H]3C(=O)C=C4[C@@H]5C[C@@](C)(C(=O)O)CC[C@]5(C)CC[C@@]4(C)[C@]3(C)CC[C@@H]12`, for which the activity change, negative = inhibition worked out at 3.97%. In the case of `Cc1cccc(N/N=C/c2ccncc2)c1`, the Potency was active: 44.7 µM. Regarding `CC(=O)OCC(=O)[C@@]1(OC(C)=O)[C@@H](C)C[C@H]2[C@@H]3C[C@H](F)C4=CC(=O)C=C[C@]4(C)[C@@]3(F)[C@@H](O)C[C@@]21C`, the activity change, negative = inhibition worked out at 24.9%. For `CC(N=C(NC#N)Nc1ccncc1)C(C)(C)C` (configuration not stated), the activity change, negative = inhibition was -11%. For `CCCCOC(=O)CC(CC(=O)OCCCC)(OC(C)=O)C(=O)OCCCC`, the activity change, negative = inhibition is 18%. Same read-out and setting: the figure for `CCCOc1ccc(C(=O)OCCN(CC)CC)cc1N` is 34.5%. As for `Cc1cc(C)cc(NC(=S)Nc2ccc(Cl)c(Cl)c2)c1`, the Potency is active: 39.8 µM. With `FC(F)(F)c1ccccc1/C=N/NC(=S)NCc1ccccc1`, the Potency was active: 39.8 µM. Consider `CN(C)CC/C=C1/c2ccccc2COc2ccc(CC(=O)O)cc21`, for which the activity change, negative = inhibition was 8.88%. For the compound `COCCNc1cc(-c2c(C)noc2C)ncn1`, the Potency is active: 39.8 µM.

Turning to `CCCCCN=C(N)N/N=C/c1c[nH]c2ccc(OC)cc12`, the activity change, negative = inhibition amounted to 12.4%. `O=C(c1ccccc1)c1ccc2n1CCC2C(=O)O` (configuration not stated): the activity change, negative = inhibition is -0.123%. Turning to `CC(C)(O)c1ccccc1CC[C@@H](SCC1(CC(=O)O)CC1)c1cccc(/C=C/c2ccc3ccc(Cl)cc3n2)c1`, the activity change, negative = inhibition is -3.3%. Regarding `Nc1ccc(C(=O)OCC(O)CO)cc1` (configuration not stated), the activity change, negative = inhibition was -25.1%. Turning to `C/C(=N\Nc1nc(-c2ccccc2)cs1)c1cccs1`, the Potency was active: 44.7 µM.

For the compound `CC(=O)Oc1cccc(C)c1`, the activity change, negative = inhibition is 10.2%. Regarding `S=c1[nH]nc(-c2ccccc2)n1C1C=CCCC1` (configuration not stated), the Potency is active: 44.7 µM. With `COc1cc(OC)nc(O[C@H](C(=O)O)C(OC)(c2ccccc2)c2ccccc2)n1`, the activity change, negative = inhibition was -13.1%. Consider `Oc1ccc(Nc2nc(-c3ccc(F)cc3F)cs2)cc1`, for which the Potency was active: 7.94 µM. For `NC1CCN(c2nc3c(cc2F)c(=O)c(C(=O)O)cn3-c2ccc(F)cc2F)C1` (configuration not stated), the activity change, negative = inhibition is 25.4%.

Take `NC(=S)N/N=C/C1=C(c2ccccc2)C2C=CC1C2` (configuration not stated): the Potency is active: 8.91 µM. Regarding `Nc1c2c(nc3ccccc13)CCCC2O` (configuration not stated), the activity change, negative = inhibition stood at 2.05%.

Take `CN(C)C(=O)Oc1ccc[n+](C)c1`: the activity change, negative = inhibition is -4.44%. Turning to `CCCC(=O)Nc1ccc(O)c(C(C)=O)c1`, the activity change, negative = inhibition came out at 55.8%. Turning to `Cc1ccc(C)n1C1C(=O)N(Cc2ccc(C(C)C)cc2)c2ccc(OC(F)(F)F)cc21` (configuration not stated), the Potency was active: 15.8 µM. Take `CC(=O)Nc1ccc(S(=O)(=O)Nc2cc(C)on2)cc1`: the activity change, negative = inhibition is -30.5%.

As to `O=C(O)CP(=O)(O)O`, the activity change, negative = inhibition is 6.21%. `Cc1cc(C)nc(SCC(=O)Nc2ccccc2C(N)=O)n1`: the Potency is active: 50.1 µM.

On to `Cc1ccc(N(CC2=NCCN2)c2cccc(O)c2)cc1`, for which the activity change, negative = inhibition was -27.1%. Turning to `S=C(NCCc1ccccc1)N1CCC2CC1c1cc(-c3ccc4c(c3)OCO4)ccc12` (configuration not stated), the Potency was active: 28.2 µM. Take `Cc1c(Cl)cccc1Nc1ccccc1C(=O)O`: the activity change, negative = inhibition came to 5.18%. With `c1ccc(C(O[C@H]2CCCN(CCc3ccc4c(c3)OCO4)C2)c2ccccc2)cc1`, the activity change, negative = inhibition is 28.6%.

The record behind these values is PubChem BioAssay AID1671190 (National Center for Advancing Translational Sciences (NCATS), 2021).
